Data: PubChem BioAssay AID248 (DTP/NCI, 2004)
The list is a part of this screen's results and no random one: its compounds were picked by chemical class. Not every dose and run of a compound is shown. T/C: endpoint of the treated group in % of that of the vehicle group. For survival time, this PubChem deposit counts one and a half times the control or more as active, and values a quarter to a half above the control carry no call in these data; other NCI protocols may use other cut-offs. Some T/C values are marked as having no survivor count here; that says nothing about deaths at the dose. Schedules are NCI's codes, taken here to give the interval after Q, in days (D) or hours (H), and the number of doses after X. Some doses were run more than once; their values stand side by side, smallest first. Some schedule codes hold Z or #, which are not explained here.

Tested on: L1210 leukemia ip in BDF1 mice, survival T/C
Experiment: NCI In Vivo Anticancer Drug Screen. Data for tumor model L1210 Leukemia (intraperitoneal) in B6D2F1 (BDF1) mice
Conditions: higher T/C = longer survival
[1] = T/C endpoint: mean survival time, dose: 50.0 mg/kg/injection, schedule: Q01DX001 (ip), vehicle: saline

CCN(CC)P(=O)(OC)N(CCCl)CCCl (stereo not drawn)
T/C (T/C endpoint: mean survival time, dose: 100.0 mg/kg/injection, schedule: Q01DX001 (ip), vehicle: DMSO): 103 % of control [survivor count not shown]
T/C (T/C endpoint: mean survival time, dose: 200.0 mg/kg/injection, schedule: Q01DX001 (ip), vehicle: DMSO): 106 % of control [survivor count not shown]

O=S(=O)(c1ccccc1)N(CCCl)CCCl
T/C (T/C endpoint: median survival time, dose: 100.0 mg/kg/injection, schedule: Q01DX009 (ip), vehicle: Klucel (hydroxypropylcellulose) (HPC)): 100 % of control [survivor count not shown]
T/C (T/C endpoint: median survival time, dose: 200.0 mg/kg/injection, schedule: Q01DX009 (ip), vehicle: Klucel (hydroxypropylcellulose) (HPC)): 97 % of control [survivor count not shown]
T/C (T/C endpoint: median survival time, dose: 400.0 mg/kg/injection, schedule: Q01DX009 (ip), vehicle: Klucel (hydroxypropylcellulose) (HPC)): 94 % of control [survivor count not shown]

O=c1oc(CCN(CCCl)CCCl)nc2ccccc12
T/C (T/C endpoint: mean survival time, dose: 50.0 mg/kg/injection, schedule: Q04DX002 (ip), vehicle: Klucel (hydroxypropylcellulose) (HPC)): 116 % of control [survivor count not shown]
T/C (T/C endpoint: mean survival time, dose: 100.0 mg/kg/injection, schedule: Q04DX002 (ip), vehicle: Klucel (hydroxypropylcellulose) (HPC)): 116 [survivor count not shown] and 138 % of control [survivor count not shown]
T/C (T/C endpoint: mean survival time, dose: 200.0 mg/kg/injection, schedule: Q04DX002 (ip), vehicle: Klucel (hydroxypropylcellulose) (HPC)): 159 [survivor count not shown] and 162 % of control [survivor count not shown]

CC1(C)NC(=O)N(CCN(CCCl)CCCl)C1=O
T/C (T/C endpoint: mean survival time, dose: 1.8 mg/kg/injection, schedule: Q01DX009 (ip), vehicle: saline): 109 % of control [survivor count not shown]
T/C (T/C endpoint: mean survival time, dose: 2.7 mg/kg/injection, schedule: Q01DX009 (ip), vehicle: saline): 120 % of control [survivor count not shown]
T/C (T/C endpoint: mean survival time, dose: 3.12 mg/kg/injection, schedule: Q04DX003 (ip), vehicle: Klucel (hydroxypropylcellulose) (HPC)): 123 % of control [survivor count not shown]
T/C (T/C endpoint: mean survival time, dose: 4.1 mg/kg/injection, schedule: Q04DX003 (ip), vehicle: Klucel (hydroxypropylcellulose) (HPC)): 107 [survivor count not shown] and 137 % of control [survivor count not shown]
T/C (T/C endpoint: mean survival time, dose: 6.25 mg/kg/injection, schedule: Q04DX003 (ip), vehicle: Klucel (hydroxypropylcellulose) (HPC)): 109 [survivor count not shown], 132 [survivor count not shown], 138 % of control [survivor count not shown]
T/C (T/C endpoint: mean survival time, dose: 9.3 mg/kg/injection, schedule: Q04DX003 (ip), vehicle: Klucel (hydroxypropylcellulose) (HPC)): 109 [survivor count not shown] and 132 % of control [survivor count not shown]
T/C (T/C endpoint: mean survival time, dose: 12.5 mg/kg/injection, schedule: Q04DX003 (ip), vehicle: Klucel (hydroxypropylcellulose) (HPC)): 104 % of control [survivor count not shown]

O=C(O)/C(O)=C/c1ccc(N(CCF)CCCl)cc1
T/C (T/C endpoint: mean survival time, dose: 25.0 mg/kg/injection, schedule: Q01DX001 (ip), vehicle: saline): 107 % of control [survivor count not shown]
T/C (T/C endpoint: mean survival time, dose: 25.0 mg/kg/injection, schedule: Q04DX003 (ip), vehicle: acetone): 103 % of control [survivor count not shown]
T/C [1]: 105 % of control [survivor count not shown]
T/C (T/C endpoint: mean survival time, dose: 50.0 mg/kg/injection, schedule: Q04DX003 (ip), vehicle: acetone): 111 % of control [survivor count not shown]
T/C (T/C endpoint: mean survival time, dose: 66.0 mg/kg/injection, schedule: Q04DX003 (ip), vehicle: saline): 105 % of control [survivor count not shown]
T/C (T/C endpoint: mean survival time, dose: 100.0 mg/kg/injection, schedule: Q04DX003 (ip), vehicle: acetone): 127 % of control [survivor count not shown]
T/C (T/C endpoint: mean survival time, dose: 100.0 mg/kg/injection, schedule: Q04DX003 (ip), vehicle: saline): 104 % of control [survivor count not shown]
T/C (T/C endpoint: mean survival time, dose: 150.0 mg/kg/injection, schedule: Q04DX003 (ip), vehicle: saline): 115 % of control [survivor count not shown]

ClCCN(CCCl)Cc1ccc(Cl)cc1
T/C (T/C endpoint: mean survival time, dose: 5.0 mg/kg/injection, schedule: Q01DX001 (ip), vehicle: carboxymethylcellulose (CMC)): 105 % of control [survivor count not shown]
T/C (T/C endpoint: mean survival time, dose: 10.0 mg/kg/injection, schedule: Q01DX001 (ip), vehicle: carboxymethylcellulose (CMC)): 105 % of control [survivor count not shown]
T/C (T/C endpoint: mean survival time, dose: 10.0 mg/kg/injection, schedule: Q04DX003 (ip), vehicle: carboxymethylcellulose (CMC)): 116 % of control [survivor count not shown]
T/C (T/C endpoint: mean survival time, dose: 20.0 mg/kg/injection, schedule: Q01DX001 (ip), vehicle: carboxymethylcellulose (CMC)): 107 % of control [survivor count not shown]
T/C (T/C endpoint: mean survival time, dose: 20.0 mg/kg/injection, schedule: Q04DX003 (ip), vehicle: carboxymethylcellulose (CMC)): 121 % of control [survivor count not shown]
T/C (T/C endpoint: mean survival time, dose: 40.0 mg/kg/injection, schedule: Q01DX001 (ip), vehicle: carboxymethylcellulose (CMC)): 112 % of control [survivor count not shown]
T/C (T/C endpoint: mean survival time, dose: 40.0 mg/kg/injection, schedule: Q04DX003 (ip), vehicle: carboxymethylcellulose (CMC)): 117 % of control [survivor count not shown]

CC(=O)c1ccc(N2CCC(OC(=O)C(O)(c3ccccc3)c3ccccc3)CC2)cc1
T/C (T/C endpoint: mean survival time, dose: 100.0 mg/kg/injection, schedule: Q04DX003 (ip), vehicle: Klucel (hydroxypropylcellulose) (HPC)): 98 % of control [survivor count not shown]
T/C (T/C endpoint: mean survival time, dose: 200.0 mg/kg/injection, schedule: Q04DX003 (ip), vehicle: Klucel (hydroxypropylcellulose) (HPC)): 101 % of control [survivor count not shown]
T/C (T/C endpoint: mean survival time, dose: 400.0 mg/kg/injection, schedule: Q04DX003 (ip), vehicle: Klucel (hydroxypropylcellulose) (HPC)): 101 % of control [survivor count not shown]

O=C(CCN(CCCl)CCCl)c1cccc([N+](=O)[O-])c1
T/C (T/C endpoint: mean survival time, dose: 5.0 mg/kg/injection, schedule: Q01DX015 (ip), vehicle: saline): 96 % of control [survivor count not shown]
T/C (T/C endpoint: mean survival time, dose: 6.25 mg/kg/injection, schedule: Q01DX009 (ip), vehicle: carboxymethylcellulose (CMC)): 108 % of control [survivor count not shown]
T/C (T/C endpoint: mean survival time, dose: 8.0 mg/kg/injection, schedule: Q01DX015 (ip), vehicle: saline): 116 % of control [survivor count not shown]
T/C (T/C endpoint: mean survival time, dose: 12.0 mg/kg/injection, schedule: Q01DX015 (ip), vehicle: saline): 125 % of control [survivor count not shown]
T/C (T/C endpoint: mean survival time, dose: 12.5 mg/kg/injection, schedule: Q01DX009 (ip), vehicle: carboxymethylcellulose (CMC)): 111 % of control [survivor count not shown]
T/C (T/C endpoint: mean survival time, dose: 18.0 mg/kg/injection, schedule: Q01DX015 (ip), vehicle: saline): 93 % of control [survivor count not shown]
T/C (T/C endpoint: mean survival time, dose: 25.0 mg/kg/injection, schedule: Q01DX009 (ip), vehicle: carboxymethylcellulose (CMC)): 116 % of control [survivor count not shown]
T/C [1]: 135 % of control [survivor count not shown]

Cn1c(=O)[nH]cc(N(CCCl)CCCl)c1=O
T/C (T/C endpoint: mean survival time, dose: 0.6 mg/kg/injection, schedule: Q01DX Z (ip), vehicle: methylcellulose (MC)): 107 % of control [survivor count not shown]
T/C (T/C endpoint: mean survival time, dose: 0.63 mg/kg/injection, schedule: Q01DX Z (ip), vehicle: methylcellulose (MC)): 122 % of control [survivor count not shown]
T/C (T/C endpoint: mean survival time, dose: 1.0 mg/kg/injection, schedule: Q01DX Z (ip), vehicle: methylcellulose (MC)): 137 % of control [survivor count not shown]
T/C (T/C endpoint: mean survival time, dose: 1.25 mg/kg/injection, schedule: Q01DX Z (ip), vehicle: methylcellulose (MC)): 127 % of control [survivor count not shown]
T/C (T/C endpoint: mean survival time, dose: 1.5 mg/kg/injection, schedule: Q01DX Z (ip), vehicle: methylcellulose (MC)): 155 % of control [survivor count not shown]
T/C (T/C endpoint: mean survival time, dose: 2.3 mg/kg/injection, schedule: Q01DX Z (ip), vehicle: methylcellulose (MC)): 86 % of control [survivor count not shown]
T/C (T/C endpoint: mean survival time, dose: 2.5 mg/kg/injection, schedule: Q01DX Z (ip), vehicle: methylcellulose (MC)): 151 % of control [survivor count not shown]
